# Screening data

From PubChem BioAssay record AID504749 (NCATS, 2011).

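A panel of P. falciparum strains inside erythrocytes is exposed to compounds for three days, then a DNA-binding dye reports the amount of parasite DNA. Each compound was titrated across a series from about 0.000037 to 29 µM. The number is the fitted AC50, the concentration giving a half-maximal change in signal; a lower value means higher potency, whether the curve shows a decrease or an increase. Calls follow the curve class and fit quality: every row here is inconclusive, covering signal-raising curves and weak, poorly fitted, partial or highest-dose-only inhibition curves.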

Values are in nM. Every entry below has the call inconclusive. These entries are mostly ones the record files as inconclusive; other results of the assay are not listed here. Potencies fitted to partial, single-point or poorly fitting curves are rough.

{"smiles": "CC1(C)O[C@@H]2C[C@@H]3[C@H]4C[C@@H](F)C5=CC(=O)C=C[C@]5(C)[C@@]4(F)[C@@H](O)C[C@]3(C)[C@]2(C(=O)CO)O1", "condition": "CP291", "potency (nM)": "15101", "remark": "inhibitor, single point"}
{"smiles": "CC1(C)O[C@@H]2C[C@@H]3[C@H]4C[C@@H](F)C5=CC(=O)C=C[C@]5(C)[C@@]4(F)[C@@H](O)C[C@]3(C)[C@]2(C(=O)CO)O1", "condition": "CP269", "potency (nM)": "16944", "remark": "inhibitor, single point"}
{"smiles": "CC1(C)O[C@@H]2C[C@@H]3[C@H]4C[C@@H](F)C5=CC(=O)C=C[C@]5(C)[C@@]4(F)[C@@H](O)C[C@]3(C)[C@]2(C(=O)CO)O1", "condition": "CP203", "potency (nM)": "19011", "remark": "inhibitor, single point"}
{"smiles": "CC1(C)O[C@@H]2C[C@@H]3[C@H]4C[C@@H](F)C5=CC(=O)C=C[C@]5(C)[C@@]4(F)[C@@H](O)C[C@]3(C)[C@]2(C(=O)CO)O1", "condition": "CP268", "potency (nM)": "19011", "remark": "inhibitor, single point"}
{"smiles": "CC1(C)O[C@@H]2C[C@@H]3[C@H]4C[C@@H](F)C5=CC(=O)C=C[C@]5(C)[C@@]4(F)[C@@H](O)C[C@]3(C)[C@]2(C(=O)CO)O1", "condition": "CP192", "potency (nM)": "21331", "remark": "inhibitor, single point"}
{"smiles": "CC1(C)O[C@@H]2C[C@@H]3[C@H]4C[C@@H](F)C5=CC(=O)C=C[C@]5(C)[C@@]4(F)[C@@H](O)C[C@]3(C)[C@]2(C(=O)CO)O1", "condition": "DIV17", "potency (nM)": "19011", "remark": "inhibitor, single point"}
{"smiles": "CC1(C)O[C@@H]2C[C@@H]3[C@H]4C[C@@H](F)C5=CC(=O)C=C[C@]5(C)[C@@]4(F)[C@@H](O)C[C@]3(C)[C@]2(C(=O)CO)O1", "condition": "CP325", "potency (nM)": "16944", "remark": "inhibitor, single point"}
{"smiles": "CC1(C)O[C@@H]2C[C@@H]3[C@H]4C[C@@H](F)C5=CC(=O)C=C[C@]5(C)[C@@]4(F)[C@@H](O)C[C@]3(C)[C@]2(C(=O)CO)O1", "condition": "CP211", "potency (nM)": "19011", "remark": "inhibitor, single point"}
{"smiles": "CC1(C)CC1C(=O)N/C(=C/CCCCSCC(N)C(=O)O)C(=O)O", "stereo": "stereo not drawn", "condition": "CP260", "potency (nM)": "17782", "remark": "inhibitor, single point"}
{"smiles": "C[C@@]12C=CC(=O)C=C1CCC1C3CC(O)[C@@](O)(C(=O)CO)[C@]3(C)CC(O)[C@]12F", "stereo": "stereo partly drawn", "condition": "parasite line B", "potency (nM)": "17782", "remark": "inhibitor, single point"}
{"smiles": "C[C@@H]1CC[C@H]2[C@@H](C)C(=O)O[C@@H]3OC4(C)CC[C@@H]1C32OO4", "stereo": "stereo partly drawn", "condition": "JCK", "potency (nM)": "20", "remark": "inhibitor, full curve, poor fit"}
{"smiles": "C[C@@H]1CC[C@H]2[C@@H](C)C(=O)O[C@@H]3OC4(C)CC[C@@H]1C32OO4", "stereo": "stereo partly drawn", "condition": "PC49", "potency (nM)": "100", "remark": "inhibitor, full curve, poor fit"}
{"smiles": "Cc1ccccc1C(OCCN(C)C)c1ccccc1", "stereo": "stereo not drawn", "condition": "CP238", "potency (nM)": "11220", "remark": "inhibitor, partial curve"}
{"smiles": "Cc1ccccc1C(OCCN(C)C)c1ccccc1", "stereo": "stereo not drawn", "condition": "CP325", "potency (nM)": "10690", "remark": "inhibitor, partial curve"}
{"smiles": "Cc1ccccc1C(OCCN(C)C)c1ccccc1", "stereo": "stereo not drawn", "condition": "CP329", "potency (nM)": "9528", "remark": "inhibitor, partial curve, poor fit"}
{"smiles": "Oc1cccc[c]1[Hg][Cl]", "condition": "CP250", "potency (nM)": "11220", "remark": "inhibitor, single point"}
{"smiles": "Oc1cccc[c]1[Hg][Cl]", "condition": "CP335", "potency (nM)": "6746", "remark": "inhibitor, partial curve, poor fit"}
{"smiles": "Oc1cccc[c]1[Hg][Cl]", "condition": "CP315", "potency (nM)": "19011", "remark": "inhibitor, single point"}
{"smiles": "Oc1cccc[c]1[Hg][Cl]", "condition": "CP194", "potency (nM)": "16944", "remark": "inhibitor, single point"}
{"smiles": "Oc1cccc[c]1[Hg][Cl]", "condition": "CP262", "potency (nM)": "4256", "remark": "inhibitor, single point"}
{"smiles": "Oc1cccc[c]1[Hg][Cl]", "condition": "CP203", "potency (nM)": "9528", "remark": "inhibitor, partial curve, poor fit"}
{"smiles": "Oc1cccc[c]1[Hg][Cl]", "condition": "CP201", "potency (nM)": "15101", "remark": "inhibitor, single point"}
{"smiles": "CN1CCN(CCC(=O)N2c3ccccc3Sc3ccc(C(F)(F)F)cc32)CC1", "condition": "P93_24", "potency (nM)": "5623", "remark": "inhibitor, partial curve"}

For reference, 3 entries once more:

Cc1ccccc1C(OCCN(C)C)c1ccccc1 (stereo not drawn) [CP329] gave potency 9528 nM (inhibitor, partial curve, poor fit).
Oc1cccc[c]1[Hg][Cl] [CP203] gave potency 9528 nM (inhibitor, partial curve, poor fit).
CC1(C)O[C@@H]2C[C@@H]3[C@H]4C[C@@H](F)C5=CC(=O)C=C[C@]5(C)[C@@]4(F)[C@@H](O)C[C@]3(C)[C@]2(C(=O)CO)O1 [CP268] gave potency 19011 nM (inhibitor, single point).